Measurements published in the supplement of paper PMC10849652.
This is one part of the list.

By UniProt entry, the sequences of proteins in these tests, tags left out. Where a name states a change or a piece, a line headed by the entry shows the natural chain unless it says otherwise.
UniProt P41250: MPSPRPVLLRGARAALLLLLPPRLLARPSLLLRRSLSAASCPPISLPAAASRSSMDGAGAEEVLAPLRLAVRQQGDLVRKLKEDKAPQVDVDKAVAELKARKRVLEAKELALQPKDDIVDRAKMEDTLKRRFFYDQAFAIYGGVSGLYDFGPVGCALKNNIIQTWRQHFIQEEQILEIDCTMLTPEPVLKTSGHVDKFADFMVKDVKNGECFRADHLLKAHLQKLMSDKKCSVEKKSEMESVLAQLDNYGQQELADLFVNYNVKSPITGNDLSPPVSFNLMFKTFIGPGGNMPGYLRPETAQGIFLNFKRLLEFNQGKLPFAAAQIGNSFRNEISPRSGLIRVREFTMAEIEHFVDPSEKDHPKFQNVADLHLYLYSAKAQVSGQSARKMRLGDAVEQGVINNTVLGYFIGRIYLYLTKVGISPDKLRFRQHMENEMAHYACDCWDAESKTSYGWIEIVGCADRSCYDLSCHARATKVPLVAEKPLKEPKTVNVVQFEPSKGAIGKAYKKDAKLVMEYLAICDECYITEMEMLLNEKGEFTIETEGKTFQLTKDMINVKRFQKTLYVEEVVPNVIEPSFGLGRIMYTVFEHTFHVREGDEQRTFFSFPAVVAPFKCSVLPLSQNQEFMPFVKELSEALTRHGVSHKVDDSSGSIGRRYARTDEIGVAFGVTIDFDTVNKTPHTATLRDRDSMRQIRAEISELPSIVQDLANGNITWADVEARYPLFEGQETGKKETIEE
UniProt Q9NZC3: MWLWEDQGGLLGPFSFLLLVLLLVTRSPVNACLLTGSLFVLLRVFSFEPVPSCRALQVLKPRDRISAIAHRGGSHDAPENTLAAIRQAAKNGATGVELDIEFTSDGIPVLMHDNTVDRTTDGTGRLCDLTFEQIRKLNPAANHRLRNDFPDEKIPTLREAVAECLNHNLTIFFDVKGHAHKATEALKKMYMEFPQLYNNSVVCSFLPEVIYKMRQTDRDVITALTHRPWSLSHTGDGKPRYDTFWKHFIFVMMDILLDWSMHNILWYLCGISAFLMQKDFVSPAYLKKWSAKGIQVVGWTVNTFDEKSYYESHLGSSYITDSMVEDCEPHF
UniProt O75223: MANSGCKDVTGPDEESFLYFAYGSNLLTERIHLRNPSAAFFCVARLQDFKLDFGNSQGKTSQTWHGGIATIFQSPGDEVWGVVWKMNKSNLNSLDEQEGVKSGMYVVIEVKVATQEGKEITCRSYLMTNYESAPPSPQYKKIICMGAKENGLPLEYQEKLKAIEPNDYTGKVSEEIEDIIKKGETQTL
UniProt P11413, whole entry, looked up: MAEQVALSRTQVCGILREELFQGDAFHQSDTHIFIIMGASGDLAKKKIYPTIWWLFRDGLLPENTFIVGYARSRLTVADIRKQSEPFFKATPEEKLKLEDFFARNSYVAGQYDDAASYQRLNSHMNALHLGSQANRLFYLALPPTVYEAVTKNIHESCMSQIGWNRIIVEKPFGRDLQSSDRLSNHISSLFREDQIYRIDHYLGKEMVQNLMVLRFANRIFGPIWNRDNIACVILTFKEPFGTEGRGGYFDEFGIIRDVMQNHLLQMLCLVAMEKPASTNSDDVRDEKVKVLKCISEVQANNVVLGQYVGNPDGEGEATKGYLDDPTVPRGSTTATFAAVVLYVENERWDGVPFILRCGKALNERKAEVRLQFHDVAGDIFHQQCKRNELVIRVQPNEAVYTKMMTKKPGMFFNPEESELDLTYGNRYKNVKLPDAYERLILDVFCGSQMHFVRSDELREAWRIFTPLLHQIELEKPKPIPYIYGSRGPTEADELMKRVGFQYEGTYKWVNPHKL
UniProt Q8NB37: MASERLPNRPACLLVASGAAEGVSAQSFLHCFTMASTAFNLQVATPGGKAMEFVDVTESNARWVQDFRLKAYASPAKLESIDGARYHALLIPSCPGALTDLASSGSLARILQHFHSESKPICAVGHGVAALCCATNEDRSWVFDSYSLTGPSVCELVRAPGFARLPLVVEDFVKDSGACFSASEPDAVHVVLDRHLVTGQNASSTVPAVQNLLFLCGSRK
UniProt O94915: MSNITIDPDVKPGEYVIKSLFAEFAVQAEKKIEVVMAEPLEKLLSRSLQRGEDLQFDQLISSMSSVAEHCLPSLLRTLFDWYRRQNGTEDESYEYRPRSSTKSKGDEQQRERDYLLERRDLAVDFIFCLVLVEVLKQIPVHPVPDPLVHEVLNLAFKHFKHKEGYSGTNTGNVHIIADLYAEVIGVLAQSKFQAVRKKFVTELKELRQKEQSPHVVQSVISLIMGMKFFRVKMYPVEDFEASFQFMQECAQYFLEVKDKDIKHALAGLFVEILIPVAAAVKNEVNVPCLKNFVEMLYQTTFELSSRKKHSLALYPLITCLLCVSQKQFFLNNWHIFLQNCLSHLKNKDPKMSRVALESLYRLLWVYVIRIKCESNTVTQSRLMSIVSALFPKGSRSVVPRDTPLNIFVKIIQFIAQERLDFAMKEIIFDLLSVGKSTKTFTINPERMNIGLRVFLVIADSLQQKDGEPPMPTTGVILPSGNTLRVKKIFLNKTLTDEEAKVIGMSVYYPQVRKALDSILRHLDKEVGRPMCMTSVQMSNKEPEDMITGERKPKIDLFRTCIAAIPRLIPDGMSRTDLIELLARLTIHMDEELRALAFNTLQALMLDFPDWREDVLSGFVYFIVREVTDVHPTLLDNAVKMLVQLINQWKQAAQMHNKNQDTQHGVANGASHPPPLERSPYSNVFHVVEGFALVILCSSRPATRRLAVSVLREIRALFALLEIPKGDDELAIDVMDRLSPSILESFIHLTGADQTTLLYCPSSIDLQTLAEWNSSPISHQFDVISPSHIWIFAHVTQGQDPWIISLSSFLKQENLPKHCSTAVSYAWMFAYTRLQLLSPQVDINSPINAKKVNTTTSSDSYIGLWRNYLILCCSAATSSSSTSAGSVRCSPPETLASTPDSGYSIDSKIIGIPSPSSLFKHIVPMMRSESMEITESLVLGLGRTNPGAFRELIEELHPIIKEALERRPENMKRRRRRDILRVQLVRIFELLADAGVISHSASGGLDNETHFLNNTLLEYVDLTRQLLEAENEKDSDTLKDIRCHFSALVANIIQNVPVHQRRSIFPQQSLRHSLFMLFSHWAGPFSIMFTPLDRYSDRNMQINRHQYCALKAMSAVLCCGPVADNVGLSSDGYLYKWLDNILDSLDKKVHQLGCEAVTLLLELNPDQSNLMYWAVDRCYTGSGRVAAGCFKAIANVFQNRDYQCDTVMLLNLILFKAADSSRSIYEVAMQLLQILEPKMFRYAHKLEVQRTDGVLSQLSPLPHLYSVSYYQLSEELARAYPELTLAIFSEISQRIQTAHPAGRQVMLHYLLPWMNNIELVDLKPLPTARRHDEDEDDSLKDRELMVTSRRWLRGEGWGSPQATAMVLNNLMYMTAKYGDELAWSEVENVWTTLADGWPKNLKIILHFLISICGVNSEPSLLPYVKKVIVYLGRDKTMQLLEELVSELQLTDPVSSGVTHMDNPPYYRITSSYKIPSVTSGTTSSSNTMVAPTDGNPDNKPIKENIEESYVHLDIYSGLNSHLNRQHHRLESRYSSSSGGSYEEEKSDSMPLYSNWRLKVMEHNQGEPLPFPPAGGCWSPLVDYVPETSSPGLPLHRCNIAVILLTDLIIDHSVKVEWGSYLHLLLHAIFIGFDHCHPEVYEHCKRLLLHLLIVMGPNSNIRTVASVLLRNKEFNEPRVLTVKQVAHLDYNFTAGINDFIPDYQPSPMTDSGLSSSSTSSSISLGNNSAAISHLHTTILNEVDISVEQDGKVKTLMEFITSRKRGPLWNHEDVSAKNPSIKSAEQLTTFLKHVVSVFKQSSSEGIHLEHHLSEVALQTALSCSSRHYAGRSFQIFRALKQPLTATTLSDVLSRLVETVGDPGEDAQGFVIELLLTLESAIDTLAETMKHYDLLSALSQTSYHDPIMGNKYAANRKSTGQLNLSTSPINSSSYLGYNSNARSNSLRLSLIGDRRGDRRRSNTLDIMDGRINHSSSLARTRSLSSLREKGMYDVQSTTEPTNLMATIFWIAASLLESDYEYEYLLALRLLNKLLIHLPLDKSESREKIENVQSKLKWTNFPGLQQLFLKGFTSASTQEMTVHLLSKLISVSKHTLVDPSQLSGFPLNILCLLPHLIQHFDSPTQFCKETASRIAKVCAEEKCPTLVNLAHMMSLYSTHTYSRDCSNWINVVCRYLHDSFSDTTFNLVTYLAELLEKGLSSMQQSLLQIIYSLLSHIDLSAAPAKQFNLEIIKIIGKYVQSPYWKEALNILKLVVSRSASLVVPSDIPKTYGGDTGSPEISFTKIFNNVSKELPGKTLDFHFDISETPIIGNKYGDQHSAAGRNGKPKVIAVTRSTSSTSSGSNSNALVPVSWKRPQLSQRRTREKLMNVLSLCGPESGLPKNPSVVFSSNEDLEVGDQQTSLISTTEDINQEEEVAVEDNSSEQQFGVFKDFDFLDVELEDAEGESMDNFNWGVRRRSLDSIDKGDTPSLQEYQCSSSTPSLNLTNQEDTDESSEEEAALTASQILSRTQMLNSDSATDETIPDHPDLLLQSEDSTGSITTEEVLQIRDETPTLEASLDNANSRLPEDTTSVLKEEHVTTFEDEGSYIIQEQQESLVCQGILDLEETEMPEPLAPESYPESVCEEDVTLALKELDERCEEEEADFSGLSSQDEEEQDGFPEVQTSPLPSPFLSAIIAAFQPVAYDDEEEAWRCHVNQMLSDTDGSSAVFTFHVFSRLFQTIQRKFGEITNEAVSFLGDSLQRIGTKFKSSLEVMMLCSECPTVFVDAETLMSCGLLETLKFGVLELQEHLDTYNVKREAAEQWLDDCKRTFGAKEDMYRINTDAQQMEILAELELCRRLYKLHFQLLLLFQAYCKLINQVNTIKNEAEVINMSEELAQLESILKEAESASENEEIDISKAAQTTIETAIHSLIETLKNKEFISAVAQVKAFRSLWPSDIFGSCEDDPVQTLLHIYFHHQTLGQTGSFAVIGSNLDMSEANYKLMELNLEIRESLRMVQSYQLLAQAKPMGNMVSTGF
UniProt Q9BYC5: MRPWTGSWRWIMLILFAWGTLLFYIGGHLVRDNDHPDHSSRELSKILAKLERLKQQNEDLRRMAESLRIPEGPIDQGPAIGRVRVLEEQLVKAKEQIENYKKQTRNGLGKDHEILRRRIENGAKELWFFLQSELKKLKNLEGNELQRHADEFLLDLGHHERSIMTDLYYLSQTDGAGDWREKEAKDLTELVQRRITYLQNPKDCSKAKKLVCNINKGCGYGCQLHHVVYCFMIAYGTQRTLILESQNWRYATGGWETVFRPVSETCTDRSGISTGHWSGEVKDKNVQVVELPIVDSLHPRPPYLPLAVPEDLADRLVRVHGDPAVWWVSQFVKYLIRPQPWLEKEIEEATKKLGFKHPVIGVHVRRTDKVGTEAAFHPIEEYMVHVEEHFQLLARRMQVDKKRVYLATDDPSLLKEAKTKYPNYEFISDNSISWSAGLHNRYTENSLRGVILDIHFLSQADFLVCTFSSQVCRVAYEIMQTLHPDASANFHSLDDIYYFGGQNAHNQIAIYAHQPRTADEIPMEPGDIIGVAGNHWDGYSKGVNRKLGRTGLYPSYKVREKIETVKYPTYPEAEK
UniProt P50395: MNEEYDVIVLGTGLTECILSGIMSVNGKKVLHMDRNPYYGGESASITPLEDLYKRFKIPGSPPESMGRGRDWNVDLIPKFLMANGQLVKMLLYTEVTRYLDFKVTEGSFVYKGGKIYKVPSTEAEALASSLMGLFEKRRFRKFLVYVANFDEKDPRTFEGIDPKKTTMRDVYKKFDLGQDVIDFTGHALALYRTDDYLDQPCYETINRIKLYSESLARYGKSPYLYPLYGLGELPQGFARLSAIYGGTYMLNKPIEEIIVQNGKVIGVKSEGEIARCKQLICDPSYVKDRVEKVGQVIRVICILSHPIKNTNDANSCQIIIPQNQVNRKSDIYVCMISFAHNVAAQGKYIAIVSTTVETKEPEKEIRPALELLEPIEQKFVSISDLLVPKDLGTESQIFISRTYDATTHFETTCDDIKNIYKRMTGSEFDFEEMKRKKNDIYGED
UniProt P55789: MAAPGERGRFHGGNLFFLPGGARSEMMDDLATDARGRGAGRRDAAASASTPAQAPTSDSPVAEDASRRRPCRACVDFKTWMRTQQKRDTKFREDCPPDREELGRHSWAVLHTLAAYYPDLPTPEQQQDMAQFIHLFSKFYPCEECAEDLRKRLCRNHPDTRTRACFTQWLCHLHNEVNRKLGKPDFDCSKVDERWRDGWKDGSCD
UniProt Q8TB36: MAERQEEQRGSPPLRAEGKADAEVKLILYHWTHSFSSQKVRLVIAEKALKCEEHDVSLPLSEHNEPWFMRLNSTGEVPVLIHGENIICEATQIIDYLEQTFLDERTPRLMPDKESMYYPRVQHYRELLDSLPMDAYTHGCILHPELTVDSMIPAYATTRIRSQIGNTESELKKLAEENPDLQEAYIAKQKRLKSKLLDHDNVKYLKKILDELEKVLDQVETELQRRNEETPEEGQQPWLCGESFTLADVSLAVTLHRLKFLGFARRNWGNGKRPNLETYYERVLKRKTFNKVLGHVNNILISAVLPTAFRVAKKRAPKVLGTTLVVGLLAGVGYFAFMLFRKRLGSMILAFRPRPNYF

What follows are targets tested with C1CN(CCC1(CC2=CC=C(C=C2)Cl)N)C3=NC=NC4=C3C=CN4 (assay: log2 fold change, soluble protein after heating vs DMSO (PISA); higher = thermal stabilisation; K562 cells, 10 uM, 30 min; active = over 0.2 and 3.5 SD of the protein, either way, in both replicates (recomputed)).
How it was run: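 K562 cells (2×10^6 cells/mL) were treated with 10 μM compound for 30 min, and aliquots were heated for 3 min over 48°C-58°C. Pooled aliquots were extracted in PBS with 0.5% NP-40 at 4°C, and the supernatant after 21,000xg for 90 min was measured by TMTpro 16plex LC-MS/MS with channel sums equalised. Reported thermal stability, relative to control samples and from duplicates, is a log2 fold change.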

log2 fold change, inactive:
GALNT7 (UniProt Q86SF2) 0.01
GEMIN6 (UniProt Q8WXD5) -0.045
GBF1 (UniProt Q92538) -0.052
GCHFR (UniProt P30047) 0.048
GARS1 (UniProt P41250) 0.064
GDE1 (UniProt Q9NZC3) 0.13
GALNT6 (UniProt Q8NCL4) 0.135
GGCT (UniProt O75223) 0.032
FSCN1 (UniProt Q16658) 0.027
GCSH (UniProt P23434) -0.025
G6PD isoform 2 (UniProt P11413) 0.015
FYCO1 isoform 4 (UniProt Q9BQS8) -0.009
FOXJ3 (UniProt Q9UPW0) 0.05
GAR1 (UniProt Q9NY12) -0.215
FUCA1 (UniProt P04066) 0.018
GATD1 (UniProt Q8NB37) 0.098
GAMT (UniProt Q14353) -0.017
GCAT isoform 2 (UniProt O75600) 0.015
FRYL (UniProt O94915) -0.026
GGT2 isoform 3 (UniProt P36268) 0.007
FUT8 (UniProt Q9BYC5) -0.038
GDI2 (UniProt P50395) 0.018
FXR2 (UniProt P51116) 0.032
GGA1 isoform 6 (UniProt Q9UJY5) -0.023
GDPD1 (UniProt Q8N9F7) 0.024
FOXRED1 (UniProt Q96CU9) 0.128
FUBP3 (UniProt Q96I24) 0.036
GGT7 (UniProt Q9UJ14) 0.062
GHITM (UniProt Q9H3K2) 0.057
GFER (UniProt P55789) 0.063
GADD45GIP1 (UniProt Q8TAE8) -0.015
GDAP1 (UniProt Q8TB36) 0.023

Pulled one by one from the list above:
log2 fold change, inactive:
GDI2 (UniProt P50395) 0.018
FUCA1 (UniProt P04066) 0.018
